Results are given in words; binding and its absence hold for the method and conditions named. In cells and extracts the contact can be indirect. Some results given as binding are weak or reduced against the parent protein; the word gives no strength.

Protein sequences, listed by entry. Tags and fused reporters are not part of them.
UniProt P62960: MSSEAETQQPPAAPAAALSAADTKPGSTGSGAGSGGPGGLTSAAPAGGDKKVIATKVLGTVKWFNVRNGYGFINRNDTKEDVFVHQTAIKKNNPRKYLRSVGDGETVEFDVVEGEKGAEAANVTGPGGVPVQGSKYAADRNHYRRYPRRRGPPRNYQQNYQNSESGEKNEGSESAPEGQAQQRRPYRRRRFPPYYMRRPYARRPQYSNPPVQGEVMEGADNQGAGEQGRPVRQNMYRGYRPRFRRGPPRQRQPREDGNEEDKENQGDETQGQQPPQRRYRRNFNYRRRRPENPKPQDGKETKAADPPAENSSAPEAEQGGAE
UniProt Q8CFI0: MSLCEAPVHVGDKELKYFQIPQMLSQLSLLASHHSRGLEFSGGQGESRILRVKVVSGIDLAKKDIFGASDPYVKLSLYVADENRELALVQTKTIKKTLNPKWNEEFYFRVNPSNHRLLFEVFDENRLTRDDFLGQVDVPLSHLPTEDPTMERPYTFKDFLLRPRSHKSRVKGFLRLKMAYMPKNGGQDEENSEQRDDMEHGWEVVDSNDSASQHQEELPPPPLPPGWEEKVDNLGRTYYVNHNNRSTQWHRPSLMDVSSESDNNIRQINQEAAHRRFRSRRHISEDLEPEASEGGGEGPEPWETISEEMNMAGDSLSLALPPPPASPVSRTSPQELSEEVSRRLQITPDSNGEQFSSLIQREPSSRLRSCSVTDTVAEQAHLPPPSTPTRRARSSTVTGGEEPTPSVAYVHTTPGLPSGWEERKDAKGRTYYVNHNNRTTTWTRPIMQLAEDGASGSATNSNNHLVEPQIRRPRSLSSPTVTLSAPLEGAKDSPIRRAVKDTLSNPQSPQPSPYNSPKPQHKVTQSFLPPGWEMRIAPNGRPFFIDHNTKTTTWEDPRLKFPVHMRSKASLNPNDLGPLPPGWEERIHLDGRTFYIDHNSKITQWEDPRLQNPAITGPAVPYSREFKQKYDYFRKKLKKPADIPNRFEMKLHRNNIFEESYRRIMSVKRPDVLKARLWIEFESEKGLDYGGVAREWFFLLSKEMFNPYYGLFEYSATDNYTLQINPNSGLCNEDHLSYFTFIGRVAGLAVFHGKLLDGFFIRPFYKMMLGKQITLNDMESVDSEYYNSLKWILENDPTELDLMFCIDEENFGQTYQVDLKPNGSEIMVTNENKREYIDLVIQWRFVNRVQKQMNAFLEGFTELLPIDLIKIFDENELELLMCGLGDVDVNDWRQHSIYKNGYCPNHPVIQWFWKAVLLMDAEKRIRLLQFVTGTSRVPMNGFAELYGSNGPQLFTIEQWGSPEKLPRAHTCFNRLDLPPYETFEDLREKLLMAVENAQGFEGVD

For the assay, the target named is Ybx1 (Y-box binding protein 1) (not stated (endogenous in cardiomyocytes; mouse or rat cardiomyocytes isolated)) (UniProt P62960). Briefly: co-IP; cell lysates of cardiomyocytes (with circNfix knockdown or overexpression) immunoprecipitated with antibody against Ybx1, immunoblotted with anti-ubiquitin, anti-Ybx1 or anti-Nedd4l antibody. (In general: Immunoblotting shows a protein as a band on a membrane.)

In the case of “Nedd4l (an E3 ubiquitin ligase) (from UniProt Q8CFI0 1-1004) (enzyme)”, the binding result is given as “binds”.

The values are drawn from publication PMC6629176.
